Experimental data from the supplement of paper PMC10849652.
This is one part of the list.

Chains of the proteins cited; added tags and fusions are not shown. Lines headed by an entry give the natural chain unless they say otherwise; changes in a name come on top.
UniProt Q7Z3T8: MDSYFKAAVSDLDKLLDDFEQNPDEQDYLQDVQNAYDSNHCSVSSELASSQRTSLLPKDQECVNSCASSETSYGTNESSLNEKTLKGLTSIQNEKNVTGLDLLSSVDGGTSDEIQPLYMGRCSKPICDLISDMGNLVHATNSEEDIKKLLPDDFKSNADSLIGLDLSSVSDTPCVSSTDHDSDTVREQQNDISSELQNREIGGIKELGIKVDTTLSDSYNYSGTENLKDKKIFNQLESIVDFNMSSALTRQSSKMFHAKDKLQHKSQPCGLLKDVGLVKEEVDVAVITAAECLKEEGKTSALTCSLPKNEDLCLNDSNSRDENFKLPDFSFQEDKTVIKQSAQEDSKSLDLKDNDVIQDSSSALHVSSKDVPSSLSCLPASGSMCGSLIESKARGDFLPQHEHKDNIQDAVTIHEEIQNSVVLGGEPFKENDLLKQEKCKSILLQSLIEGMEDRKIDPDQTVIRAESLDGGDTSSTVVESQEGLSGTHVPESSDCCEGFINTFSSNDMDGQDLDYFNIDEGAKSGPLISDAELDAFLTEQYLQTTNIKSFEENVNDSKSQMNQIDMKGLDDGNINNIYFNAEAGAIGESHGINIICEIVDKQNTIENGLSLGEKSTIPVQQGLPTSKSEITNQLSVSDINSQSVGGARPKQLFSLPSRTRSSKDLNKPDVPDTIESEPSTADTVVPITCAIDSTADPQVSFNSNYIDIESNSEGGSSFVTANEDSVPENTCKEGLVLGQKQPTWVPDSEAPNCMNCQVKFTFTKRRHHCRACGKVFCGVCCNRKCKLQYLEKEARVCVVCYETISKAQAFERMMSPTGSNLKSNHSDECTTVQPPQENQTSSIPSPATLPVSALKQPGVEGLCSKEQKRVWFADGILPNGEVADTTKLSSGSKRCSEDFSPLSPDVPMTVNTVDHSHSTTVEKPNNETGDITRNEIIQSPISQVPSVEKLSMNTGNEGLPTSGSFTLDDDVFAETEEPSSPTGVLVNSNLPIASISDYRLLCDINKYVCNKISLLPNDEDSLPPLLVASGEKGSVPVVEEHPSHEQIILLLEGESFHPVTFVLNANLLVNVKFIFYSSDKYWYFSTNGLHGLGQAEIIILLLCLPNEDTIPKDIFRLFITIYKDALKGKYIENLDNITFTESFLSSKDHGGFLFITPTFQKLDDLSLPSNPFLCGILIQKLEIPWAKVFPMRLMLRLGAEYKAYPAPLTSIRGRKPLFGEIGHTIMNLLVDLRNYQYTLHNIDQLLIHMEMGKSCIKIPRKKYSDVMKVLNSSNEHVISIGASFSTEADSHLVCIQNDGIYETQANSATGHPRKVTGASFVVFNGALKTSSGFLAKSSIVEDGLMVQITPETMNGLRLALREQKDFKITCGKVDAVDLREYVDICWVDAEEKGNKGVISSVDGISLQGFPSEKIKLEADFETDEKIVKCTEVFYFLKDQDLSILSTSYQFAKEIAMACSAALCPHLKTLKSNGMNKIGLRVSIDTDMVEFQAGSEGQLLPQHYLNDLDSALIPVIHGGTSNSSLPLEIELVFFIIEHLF
UniProt P31946: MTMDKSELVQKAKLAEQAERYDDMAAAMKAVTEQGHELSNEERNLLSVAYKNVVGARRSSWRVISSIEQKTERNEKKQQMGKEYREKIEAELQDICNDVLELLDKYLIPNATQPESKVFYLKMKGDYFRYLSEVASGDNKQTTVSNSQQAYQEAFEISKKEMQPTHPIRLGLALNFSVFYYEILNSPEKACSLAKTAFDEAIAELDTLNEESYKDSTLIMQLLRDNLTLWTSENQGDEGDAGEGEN
UniProt P54577: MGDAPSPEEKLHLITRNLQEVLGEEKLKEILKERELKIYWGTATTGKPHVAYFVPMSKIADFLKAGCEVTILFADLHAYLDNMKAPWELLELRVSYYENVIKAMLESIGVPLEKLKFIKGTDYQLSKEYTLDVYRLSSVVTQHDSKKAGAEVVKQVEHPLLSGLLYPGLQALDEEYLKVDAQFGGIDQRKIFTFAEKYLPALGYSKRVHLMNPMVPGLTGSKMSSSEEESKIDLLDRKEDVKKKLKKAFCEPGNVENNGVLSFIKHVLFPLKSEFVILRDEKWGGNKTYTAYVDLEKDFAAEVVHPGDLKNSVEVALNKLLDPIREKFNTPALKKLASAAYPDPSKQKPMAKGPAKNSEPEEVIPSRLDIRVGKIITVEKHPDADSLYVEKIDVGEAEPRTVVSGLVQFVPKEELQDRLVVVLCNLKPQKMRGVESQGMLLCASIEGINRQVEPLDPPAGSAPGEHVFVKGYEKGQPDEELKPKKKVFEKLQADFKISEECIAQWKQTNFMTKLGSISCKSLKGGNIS
UniProt O95365: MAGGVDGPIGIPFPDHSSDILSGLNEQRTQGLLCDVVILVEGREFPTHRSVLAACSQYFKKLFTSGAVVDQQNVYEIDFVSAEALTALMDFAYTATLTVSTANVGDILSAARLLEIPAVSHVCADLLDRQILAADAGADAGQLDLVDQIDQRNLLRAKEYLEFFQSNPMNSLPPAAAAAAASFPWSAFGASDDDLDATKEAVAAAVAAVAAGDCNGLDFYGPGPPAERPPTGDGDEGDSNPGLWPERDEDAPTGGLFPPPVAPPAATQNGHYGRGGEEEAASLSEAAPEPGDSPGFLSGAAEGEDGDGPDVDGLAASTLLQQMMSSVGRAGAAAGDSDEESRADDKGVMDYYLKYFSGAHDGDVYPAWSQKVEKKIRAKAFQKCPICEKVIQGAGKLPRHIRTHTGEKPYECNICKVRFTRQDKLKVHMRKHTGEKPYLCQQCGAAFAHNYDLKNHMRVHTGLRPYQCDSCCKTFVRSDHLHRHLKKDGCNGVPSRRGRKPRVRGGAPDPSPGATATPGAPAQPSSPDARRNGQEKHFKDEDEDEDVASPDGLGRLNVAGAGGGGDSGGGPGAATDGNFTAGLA
UniProt Q5T200: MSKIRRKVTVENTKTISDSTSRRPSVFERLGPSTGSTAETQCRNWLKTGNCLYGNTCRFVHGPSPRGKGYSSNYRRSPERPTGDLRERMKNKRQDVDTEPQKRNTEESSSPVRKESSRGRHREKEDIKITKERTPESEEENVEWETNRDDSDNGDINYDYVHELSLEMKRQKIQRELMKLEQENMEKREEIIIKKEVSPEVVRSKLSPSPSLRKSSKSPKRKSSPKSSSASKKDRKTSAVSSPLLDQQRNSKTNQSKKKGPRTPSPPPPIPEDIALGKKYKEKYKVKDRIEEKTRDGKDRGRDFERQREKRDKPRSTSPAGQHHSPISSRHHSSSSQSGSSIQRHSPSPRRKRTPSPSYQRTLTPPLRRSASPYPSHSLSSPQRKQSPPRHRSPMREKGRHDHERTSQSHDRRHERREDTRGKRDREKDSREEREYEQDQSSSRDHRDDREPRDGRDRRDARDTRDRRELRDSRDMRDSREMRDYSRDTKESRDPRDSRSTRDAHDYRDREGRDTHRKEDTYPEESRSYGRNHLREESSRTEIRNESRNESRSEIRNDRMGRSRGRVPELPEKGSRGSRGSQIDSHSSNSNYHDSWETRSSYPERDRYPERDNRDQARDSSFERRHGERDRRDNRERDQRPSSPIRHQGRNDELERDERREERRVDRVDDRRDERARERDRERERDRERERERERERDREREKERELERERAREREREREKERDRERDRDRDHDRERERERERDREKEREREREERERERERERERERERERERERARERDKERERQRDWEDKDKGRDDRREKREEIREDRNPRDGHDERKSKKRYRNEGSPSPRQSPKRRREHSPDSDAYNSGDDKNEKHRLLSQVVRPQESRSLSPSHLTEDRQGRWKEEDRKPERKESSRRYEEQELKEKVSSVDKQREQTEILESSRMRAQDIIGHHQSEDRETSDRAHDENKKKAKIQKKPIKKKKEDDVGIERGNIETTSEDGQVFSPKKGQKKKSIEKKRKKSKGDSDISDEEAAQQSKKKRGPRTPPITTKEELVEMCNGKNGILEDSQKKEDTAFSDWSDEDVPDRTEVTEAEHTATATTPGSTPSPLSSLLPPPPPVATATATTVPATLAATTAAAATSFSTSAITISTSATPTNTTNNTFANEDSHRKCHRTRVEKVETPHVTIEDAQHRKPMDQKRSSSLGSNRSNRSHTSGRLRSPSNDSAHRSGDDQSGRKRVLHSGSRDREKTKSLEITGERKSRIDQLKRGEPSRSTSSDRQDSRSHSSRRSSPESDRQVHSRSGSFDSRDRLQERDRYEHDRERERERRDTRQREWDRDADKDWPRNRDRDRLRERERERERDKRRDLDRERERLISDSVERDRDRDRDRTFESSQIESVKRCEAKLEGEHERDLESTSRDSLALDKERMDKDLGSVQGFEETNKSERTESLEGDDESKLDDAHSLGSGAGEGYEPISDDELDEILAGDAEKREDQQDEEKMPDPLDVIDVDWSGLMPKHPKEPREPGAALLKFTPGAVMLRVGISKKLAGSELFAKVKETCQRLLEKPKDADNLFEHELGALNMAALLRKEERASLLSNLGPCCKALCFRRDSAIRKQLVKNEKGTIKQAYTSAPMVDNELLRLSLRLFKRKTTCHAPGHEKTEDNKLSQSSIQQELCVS
UniProt Q14202: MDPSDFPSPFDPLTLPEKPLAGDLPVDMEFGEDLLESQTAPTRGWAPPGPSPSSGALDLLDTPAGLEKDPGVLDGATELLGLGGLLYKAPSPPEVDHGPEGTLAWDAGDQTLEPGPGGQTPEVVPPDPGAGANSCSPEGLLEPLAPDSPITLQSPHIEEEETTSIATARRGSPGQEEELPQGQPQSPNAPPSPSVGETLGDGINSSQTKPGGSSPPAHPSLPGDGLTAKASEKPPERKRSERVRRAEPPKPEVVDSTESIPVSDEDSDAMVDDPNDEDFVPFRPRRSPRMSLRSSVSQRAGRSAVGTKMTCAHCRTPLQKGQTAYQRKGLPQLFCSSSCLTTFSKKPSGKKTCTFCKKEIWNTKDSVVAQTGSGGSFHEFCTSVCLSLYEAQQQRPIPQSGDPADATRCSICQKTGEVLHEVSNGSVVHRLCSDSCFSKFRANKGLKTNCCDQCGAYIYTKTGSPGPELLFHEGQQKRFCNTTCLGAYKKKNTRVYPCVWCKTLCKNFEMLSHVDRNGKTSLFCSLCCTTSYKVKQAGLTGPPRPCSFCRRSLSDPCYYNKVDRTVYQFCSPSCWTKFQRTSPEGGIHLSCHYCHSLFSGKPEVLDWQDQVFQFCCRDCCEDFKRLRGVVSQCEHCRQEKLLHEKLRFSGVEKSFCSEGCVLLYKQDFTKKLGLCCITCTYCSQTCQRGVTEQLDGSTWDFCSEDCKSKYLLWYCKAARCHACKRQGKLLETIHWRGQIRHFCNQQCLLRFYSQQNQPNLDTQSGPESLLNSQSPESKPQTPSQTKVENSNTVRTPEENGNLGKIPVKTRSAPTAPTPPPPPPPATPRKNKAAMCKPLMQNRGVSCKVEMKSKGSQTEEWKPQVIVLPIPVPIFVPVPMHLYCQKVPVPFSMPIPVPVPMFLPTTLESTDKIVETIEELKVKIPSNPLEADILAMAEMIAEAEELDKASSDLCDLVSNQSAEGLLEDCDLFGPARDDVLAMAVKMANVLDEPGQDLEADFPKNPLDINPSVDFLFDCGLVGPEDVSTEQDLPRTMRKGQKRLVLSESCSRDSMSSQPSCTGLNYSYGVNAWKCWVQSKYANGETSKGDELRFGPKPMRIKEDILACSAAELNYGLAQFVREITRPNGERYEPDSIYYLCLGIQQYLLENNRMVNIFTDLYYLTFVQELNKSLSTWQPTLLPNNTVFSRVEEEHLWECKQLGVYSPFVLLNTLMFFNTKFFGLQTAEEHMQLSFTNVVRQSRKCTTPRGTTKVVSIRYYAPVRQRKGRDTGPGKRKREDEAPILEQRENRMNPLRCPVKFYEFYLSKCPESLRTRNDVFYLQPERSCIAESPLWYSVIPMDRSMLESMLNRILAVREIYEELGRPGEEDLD
UniProt P52747: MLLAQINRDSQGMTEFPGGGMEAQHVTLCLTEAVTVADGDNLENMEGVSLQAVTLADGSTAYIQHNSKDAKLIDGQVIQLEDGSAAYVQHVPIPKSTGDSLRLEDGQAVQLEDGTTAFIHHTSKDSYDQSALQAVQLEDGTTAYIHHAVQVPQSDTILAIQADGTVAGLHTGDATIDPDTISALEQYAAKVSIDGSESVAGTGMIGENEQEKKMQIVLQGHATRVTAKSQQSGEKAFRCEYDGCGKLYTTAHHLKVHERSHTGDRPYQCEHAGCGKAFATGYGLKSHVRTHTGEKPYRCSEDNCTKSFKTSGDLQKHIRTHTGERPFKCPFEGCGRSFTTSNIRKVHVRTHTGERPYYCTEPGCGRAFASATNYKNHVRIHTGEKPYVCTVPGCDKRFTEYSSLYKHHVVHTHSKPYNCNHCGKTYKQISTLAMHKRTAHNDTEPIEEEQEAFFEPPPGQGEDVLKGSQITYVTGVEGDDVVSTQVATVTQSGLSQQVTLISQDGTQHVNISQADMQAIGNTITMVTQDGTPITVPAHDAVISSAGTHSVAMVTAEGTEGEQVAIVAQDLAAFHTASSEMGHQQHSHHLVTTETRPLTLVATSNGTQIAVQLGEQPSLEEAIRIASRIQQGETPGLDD

Key:
Assay in all cases: log2 fold change, soluble protein after heating vs DMSO (PISA); higher = thermal stabilisation; K562 cells, 10 uM, 30 min; active = over 0.2 and 3.5 SD of the protein, either way, in both replicates (recomputed)
erlotinib = compound: C#Cc1cccc(Nc2ncnc3cc(OCCOC)c(OCCOC)cc23)c1 [erlotinib]
Procedure, shortened: (§1)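 K562 cells at 2×10^6 cells/mL were treated with 10 μM compound for 30 min. Aliquots were heated for 3 min across 48°C-58°C, pooled, and extracted in PBS with 0.5% NP-40 at 4°C; soluble protein was the supernatant after 21,000xg for 90 min. Soluble protein was quantified by TMTpro 16plex LC-MS/MS with channel sums equalised, and reported as log2 fold change in thermal stability against DMSO controls, with values from duplicates.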

[1] = compound: C/C(=N\NC(=O)C1=CC(=CC=C1)S(=O)(=O)N2CCOCC2)/C3=C(C=CC(=C3)Cl)O
Procedure, shortened: as §1

[2] = compound: C1=CC(=C(C=C1Cl)C2=NC3=NC=CN=C3C(=N2)NC4=CC=NC=C4)F
Procedure, shortened: as §1

[3] = compound: C1=CC(=CC=C1C2=NC3=C(N2)C=C(C=C3)C(=O)N)OC4=CC=C(C=C4)Cl
Procedure, shortened: as §1

[4] = compound: C1=CC2=C(C=CC(=C2)/C=C\3/C(=O)NC(=NCC4=CC=CS4)S3)N=C1
Procedure, shortened: as §1

[5] = compound: C1=CC2=NC=CN=C2C=C1/C=C/3\C(=O)NC(=O)S3
Procedure, shortened: as §1

[6] = compound: C1=CC=C(C=C1)C2=NC(=C(N2)C3=CC=NC=C3)C4=CC(=C(C=C4)Cl)O
Procedure, shortened: as §1

[7] = compound: C1=CC=C2C(=C1)C3=NNC4=CC=CC(=C43)C2=O
Procedure, shortened: as §1

[8] = compound: C1CCN(C1)C(=O)NC2=CC=CC(=C2)NC3=NC=C(C(=N3)NCCC4=CN=CN4)Br
Procedure, shortened: as §1

[9] = compound: C1CN(CCC1(CC2=CC=C(C=C2)Cl)N)C3=NC=NC4=C3C=CN4
Procedure, shortened: as §1

Row | Target | log2 fold change (erlotinib) | log2 fold change [1] | log2 fold change [2] | log2 fold change [3] | log2 fold change [4] | log2 fold change [5] | log2 fold change [6] | log2 fold change [7] | log2 fold change [8] | log2 fold change [9]
1 | YBX1 (UniProt P67809) | inactive: -0.173 | inactive: -0.242 | inactive: -0.273 | inactive: -0.033 | inactive: -0.115 | inactive: -0.009 | inactive: -0.053 | inactive: -0.051 | inactive: 0.103 | inactive: -0.159
2 | ZNF207 isoform 4 (UniProt O43670) | inactive: -0.016 | inactive: 0.022 | inactive: 0.035 | inactive: 0.005 | inactive: -0.084 | inactive: -0.014 | inactive: 0.006 | inactive: 0.026 | inactive: -0.028 | inactive: -0.06
3 | ZFYVE16 (UniProt Q7Z3T8) | inactive: 0.028 | inactive: 0.049 | inactive: 0.044 | inactive: 0.01 | inactive: 0.032 | inactive: 0.025 | inactive: 0 | inactive: -0.014 | inactive: -0.005 | inactive: 0.027
4 | ZMAT2 (UniProt Q96NC0) | inactive: -0.017 | inactive: 0.001 | inactive: 0.018 | inactive: 0.019 | inactive: -0.063 | inactive: -0.015 | inactive: -0.042 | inactive: 0.018 | inactive: 0.017 | inactive: 0.058
5 | YWHAB (UniProt P31946) | inactive: 0.011 | inactive: 0.005 | inactive: 0.048 | inactive: -0.012 | inactive: 0.023 | inactive: 0.023 | inactive: -0.02 | inactive: 0.001 | inactive: 0.006 | inactive: 0.028
6 | ZCCHC9 (UniProt Q8N567) | inactive: -0.099 | inactive: -0.224 | inactive: -0.378 | inactive: 0.025 | inactive: -0.035 | inactive: -0.015 | inactive: -0.271 | inactive: -0.009 | inactive: 0.08 | inactive: -0.1
7 | ZNF148 (UniProt Q9UQR1) | inactive: 0.041 | inactive: -0.216 | inactive: 0.034 | inactive: 0.187 | inactive: 0.081 | inactive: 0.162 | inactive: 0.267 | inactive: -0.078 | inactive: -0.053 | inactive: 0.026
8 | ZMYM1 (UniProt Q5SVZ6) | inactive: 0.14 | inactive: -0.174 | inactive: -0.057 | inactive: -0.135 | inactive: 0.113 | inactive: 0.005 | inactive: -0.101 | inactive: 0.001 | inactive: -0.136 | inactive: 0.052
9 | XPO4 (UniProt Q9C0E2) | inactive: -0.011 | inactive: 0.008 | inactive: 0.031 | inactive: -0.01 | inactive: 0.041 | inactive: 0.077 | inactive: -0.018 | inactive: -0.042 | inactive: 0.022 | inactive: -0.019
10 | YPEL5 (UniProt P62699) | inactive: 0.049 | inactive: 0.032 | inactive: -0.028 | inactive: -0.021 | inactive: -0.021 | inactive: -0.002 | inactive: 0.213 | inactive: -0.158 | – | –
11 | ZFAND3 (UniProt Q9H8U3) | inactive: -0.021 | inactive: 0.041 | inactive: -0.064 | inactive: 0.046 | inactive: 0 | inactive: -0.006 | inactive: -0.037 | inactive: -0.027 | inactive: 0.03 | inactive: 0.042
12 | XRCC5 (UniProt P13010) | inactive: 0.103 | inactive: 0.178 | inactive: -0.012 | inactive: -0.038 | inactive: 0.079 | inactive: 0.037 | inactive: 0.11 | inactive: -0.039 | inactive: -0.059 | inactive: -0.139
13 | XPO7 (UniProt E7ESC6) | inactive: -0.026 | inactive: 0.064 | inactive: 0.041 | inactive: 0.022 | inactive: -0.001 | inactive: 0.011 | inactive: 0.041 | inactive: -0.009 | inactive: 0.015 | inactive: 0.031
14 | YWHAQ (UniProt P27348) | inactive: -0.07 | inactive: 0.204 | inactive: 0.146 | inactive: -0.021 | inactive: -0.201 | inactive: 0.003 | inactive: 0.284 | inactive: 0.089 | inactive: -0.089 | inactive: 0.029
15 | YARS (UniProt P54577) | inactive: 0.02 | inactive: 0.017 | inactive: -0.046 | inactive: -0.052 | inactive: 0.072 | inactive: 0.033 | inactive: 0.027 | inactive: -0.015 | inactive: -0.049 | inactive: -0.106
16 | ZC3H4 (UniProt Q9UPT8) | inactive: -0.142 | inactive: -0.185 | inactive: -0.349 | inactive: 0.004 | inactive: -0.146 | inactive: -0.025 | inactive: -0.054 | inactive: -0.004 | inactive: -0.003 | inactive: -0.081
17 | ZCCHC8 (UniProt Q6NZY4) | inactive: -0.045 | inactive: 0.007 | inactive: -0.005 | inactive: 0.028 | inactive: -0.016 | inactive: 0.058 | inactive: -0.008 | inactive: 0.046 | inactive: -0.01 | inactive: -0.057
18 | ZDHHC20 (UniProt Q5W0Z9) | inactive: 0.163 | inactive: -0.048 | inactive: 0.152 | inactive: 0.14 | inactive: -0.125 | inactive: 0.095 | inactive: -0.232 | inactive: -0.044 | inactive: -0.025 | inactive: 0.059
19 | YTHDF2 (UniProt Q9Y5A9) | inactive: -0.013 | inactive: 0.023 | inactive: -0.01 | inactive: -0.01 | inactive: -0.024 | inactive: 0.014 | inactive: -0.041 | inactive: 0.026 | inactive: -0.06 | inactive: -0.024
20 | ZFP91 (UniProt Q96JP5) | inactive: -0.004 | inactive: -0.069 | inactive: 0.007 | inactive: 0.017 | inactive: -0.007 | inactive: 0.051 | inactive: -0.06 | inactive: -0.004 | inactive: 0.004 | inactive: -0.042
21 | ZFAND5 (UniProt O76080) | inactive: -0.028 | inactive: -0.018 | inactive: 0.003 | inactive: -0.013 | inactive: -0.015 | inactive: -0.017 | inactive: -0.024 | inactive: -0.055 | inactive: 0.01 | inactive: 0.119
22 | XRN2 (UniProt Q9H0D6) | inactive: 0.023 | inactive: -0.082 | inactive: -0.069 | inactive: 0.035 | inactive: 0.034 | inactive: 0.009 | inactive: -0.012 | inactive: -0.085 | inactive: 0.022 | inactive: -0.03
23 | ZBTB7A (UniProt O95365) | inactive: -0.249 | inactive: 0.02 | inactive: -0.128 | inactive: 0.057 | inactive: 0.223 | inactive: 0.015 | inactive: 0.024 | inactive: 0.21 | inactive: -0.254 | inactive: -0.002
24 | ZADH2 (UniProt Q8N4Q0) | inactive: 0.005 | active: 0.372 | inactive: -0.011 | inactive: 0.052 | inactive: 0.042 | inactive: -0.05 | inactive: 0.121 | inactive: 0.03 | inactive: 0.001 | inactive: 0.008
25 | ZC3H13 (UniProt Q5T200) | inactive: 0.178 | inactive: -0.355 | inactive: -0.06 | inactive: 0.071 | inactive: 0.472 | inactive: -0.057 | inactive: -0.413 | inactive: -0.144 | inactive: 0.384 | inactive: -0.016
26 | XPNPEP3 (UniProt Q9NQH7) | inactive: 0.019 | active: -0.275 | inactive: 0.017 | inactive: 0.06 | inactive: 0.067 | inactive: 0.026 | inactive: -0.005 | inactive: 0 | inactive: 0.005 | inactive: 0.083
27 | XRCC4 (UniProt Q13426) | inactive: -0.006 | inactive: -0.007 | inactive: 0.039 | inactive: -0.002 | inactive: 0.02 | inactive: 0.014 | inactive: -0.034 | inactive: 0 | inactive: 0.013 | inactive: -0.003
28 | ZMYM3 (UniProt Q14202) | inactive: 0.042 | inactive: -0.004 | inactive: -0.012 | inactive: -0.02 | inactive: 0 | inactive: 0.079 | inactive: -0.033 | inactive: -0.093 | inactive: -0.042 | inactive: 0.117
29 | XPR1 (UniProt Q9UBH6) | inactive: -0.027 | inactive: 0.055 | inactive: 0.001 | inactive: 0.034 | inactive: 0.019 | inactive: 0.01 | inactive: 0.029 | inactive: -0.042 | inactive: -0.032 | inactive: 0.011
30 | ZNF143 (UniProt P52747) | inactive: 0.021 | inactive: 0.127 | inactive: -0.058 | inactive: 0.039 | inactive: -0.028 | inactive: 0.045 | inactive: 0.093 | inactive: -0.077 | inactive: -0.058 | inactive: 0.085

Single values from above:
In log2 fold change [4], ZFYVE16 (UniProt Q7Z3T8) is entered as inactive: 0.032
In log2 fold change (erlotinib), YTHDF2 (UniProt Q9Y5A9) is entered as inactive: -0.013

Single records, from the list above. Values in the order: log2 fold change (erlotinib)	log2 fold change [1]	log2 fold change [2]	log2 fold change [3]	log2 fold change [4]	log2 fold change [5]	log2 fold change [6]	log2 fold change [7]	log2 fold change [8]	log2 fold change [9]
ZFYVE16 (UniProt Q7Z3T8) is entered as inactive: 0.028	inactive: 0.049	inactive: 0.044	inactive: 0.01	inactive: 0.032	inactive: 0.025	inactive: 0	inactive: -0.014	inactive: -0.005	inactive: 0.027
ZBTB7A (UniProt O95365) is entered as inactive: -0.249	inactive: 0.02	inactive: -0.128	inactive: 0.057	inactive: 0.223	inactive: 0.015	inactive: 0.024	inactive: 0.21	inactive: -0.254	inactive: -0.002
